This is an account of results in ChEMBL document CHEMBL1782008, “Paraminabeolides A-F, cytotoxic and anti-inflammatory marine withanolides from the soft coral Paraminabea acronocephala” (J Nat Prod, 2011).

For one experiment, the system named is MDA-MB-231. Description: Cytotoxicity against human MDA-MB-231 cells by MTT assay. The experiment is classed as functional, cell-based. For orientation: Formazan colour is commonly taken as a measure of viable cells.
Another experiment deals with A549. As to the kind of experiment: Cytotoxicity against human A549 cells by MTT assay. The class given is functional, cell-based.

Broadly, the IC50 is the concentration that gives 50% inhibition. Low readings indicate inhibition by little substance, high ones a need for much substance. `COc1cccc2c1C(=O)c1c(O)c3c(c(O)c1C2=O)C[C@@](O)(C(=O)CO)C[C@@H]3O[C@H]1C[C@H](N)[C@H](O)[C@H](C)O1` [DOXORUBICIN]: the IC50 in the experiment with MDA-MB-231 and in the experiment on A549 was 2.2 µM each time.
